Binding data for two molecules are collected here from PMC7141810, “UBP12 and UBP13 negatively regulate the activity of the ubiquitin-dependent peptidases DA1, DAR1 and DAR2” (eLife, 2020).

For this test, the target named is T1, GFP-UBP12 (Arabidopsis thaliana) (UniProt Q9FPT1).
T1 sequence: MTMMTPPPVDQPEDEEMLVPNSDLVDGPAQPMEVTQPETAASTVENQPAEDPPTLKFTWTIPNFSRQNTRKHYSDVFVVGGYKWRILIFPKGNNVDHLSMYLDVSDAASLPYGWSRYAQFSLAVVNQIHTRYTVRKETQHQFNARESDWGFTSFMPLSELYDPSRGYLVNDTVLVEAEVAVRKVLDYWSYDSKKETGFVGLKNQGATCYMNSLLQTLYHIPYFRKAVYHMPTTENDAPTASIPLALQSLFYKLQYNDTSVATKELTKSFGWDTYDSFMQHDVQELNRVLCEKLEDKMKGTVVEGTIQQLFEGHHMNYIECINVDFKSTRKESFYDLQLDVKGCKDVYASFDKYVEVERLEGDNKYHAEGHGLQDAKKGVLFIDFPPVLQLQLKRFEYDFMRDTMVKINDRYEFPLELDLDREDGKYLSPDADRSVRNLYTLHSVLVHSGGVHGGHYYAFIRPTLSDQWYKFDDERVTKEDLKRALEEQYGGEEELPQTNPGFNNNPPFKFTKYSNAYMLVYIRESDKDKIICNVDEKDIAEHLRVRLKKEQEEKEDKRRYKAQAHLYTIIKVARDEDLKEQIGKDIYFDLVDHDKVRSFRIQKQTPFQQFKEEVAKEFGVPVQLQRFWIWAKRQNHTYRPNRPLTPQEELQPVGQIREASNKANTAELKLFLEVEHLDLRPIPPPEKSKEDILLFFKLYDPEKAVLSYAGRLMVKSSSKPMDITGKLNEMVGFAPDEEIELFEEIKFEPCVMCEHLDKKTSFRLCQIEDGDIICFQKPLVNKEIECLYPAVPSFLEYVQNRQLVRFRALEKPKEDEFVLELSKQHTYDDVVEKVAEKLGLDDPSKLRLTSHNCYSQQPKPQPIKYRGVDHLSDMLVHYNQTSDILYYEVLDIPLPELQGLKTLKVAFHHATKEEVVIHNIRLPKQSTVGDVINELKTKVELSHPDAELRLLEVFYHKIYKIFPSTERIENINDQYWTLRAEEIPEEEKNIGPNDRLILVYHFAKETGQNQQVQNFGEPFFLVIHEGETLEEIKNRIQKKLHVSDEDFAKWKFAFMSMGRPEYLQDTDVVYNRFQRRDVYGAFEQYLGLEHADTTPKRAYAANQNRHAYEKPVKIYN
In words: co-IP; in vivo pull-down; RFP-tagged protein co-expressed with GFP-UBP12 or free GFP from the same Golden Gate vector in Arabidopsis cell suspension cultures; purified with anti-GFP beads; Western blot with anti-GFP and anti-RFP. A general note: A western blot detects proteins with antibodies after separation by electrophoresis.

These are yes or no findings as the source states them, for the method shown. In cells and extracts the contact can be indirect. Some binding calls cover weakened binding; strength is not graded here. Sequences can lack the tags named with a protein.

B1: HIS-MBP-DAR2 (natural protein, Arabidopsis thaliana, UniProt Q0WSN2 1-528, looked up)
chain: MDSSSSSSSSSPSSSYGVARVSHISNPCIFGEVGSSSSSTYRDKKWKLMKWVSKLFKSGSNGGGSGAHTNHHPPQFQEDENMVFPLPPSSLDDRSRGARDKEELDRSISLSLADNTKRPHGYGWSMDNNRDFPRPFHGGLNPSSFIPPYEPSYQYRRRQRICGGCNSDIGSGNYLGCMGTFFHPECFRCHSCGYAITEHEFSLSGTKPYHKLCFKELTHPKCEVCHHFIPTNDAGLIEYRCHPFWNQKYCPSHEYDKTARCCSCERLESWDVRYYTLEDGRSLCLECMETAITDTGECQPLYHAIRDYYEGMYMKLDQQIPMLLVQREALNDAIVGEKNGYHHMPETRGLCLSEEQTVTSVLRRPRLGAHRLVGMRTQPQRLTRKCEVTAILVLYGLPRLLTGAILAHELMHGWLRLNGFRNLNPEVEEGICQVLSYMWLESEVLSDPSTRNLPSTSSVATSSSSSFSNKKGGKSNVEKKLGEFFKHQIAHDASPAYGGGFRAANAAACKYGLRRTLDHIRLTGTFPL
notes: DAR2, Arabidopsis thaliana, AT2G39830; source: E. coli BL21 (DE3), purified (NI-NTA agarose beads)
With B1, the binding result is given as “binds”.

B2: HIS-MBP-DA1 (natural protein, Arabidopsis thaliana, UniProt P0C7Q8 1-532, looked up)
chain: MGWFNKIFKGSNQRLRVGNNKHNHNVYYDNYPTASHDDEPSAADTDADNDEPHHTQEPSTSEDNTSNDQENEDIDRAIALSLLEENQEQTSISGKYSMPVDEDEQLARALQESMVVGNSPRHKSGSTYDNGNAYGAGDLYGNGHMYGGGNVYANGDIYYPRPITFQMDFRICAGCNMEIGHGRFLNCLNSLWHPECFRCYGCSQPISEYEFSTSGNYPFHKACYRERYHPKCDVCSHFIPTNHAGLIEYRAHPFWVQKYCPSHEHDATPRCCSCERMEPRNTRYVELNDGRKLCLECLDSAVMDTMQCQPLYLQIQNFYEGLNMKVEQEVPLLLVERQALNEAREGEKNGHYHMPETRGLCLSEEQTVSTVRKRSKHGTGKWAGNITEPYKLTRQCEVTAILILFGLPRLLTGSILAHEMMHAWMRLKGFRTLSQDVEEGICQVMAHKWLDAELAAGSTNSNAASSSSSSQGLKKGPRSQYERKLGEFFKHQIESDASPVYGDGFRAGRLAVHKYGLRKTLEHIQMTGRFPV
notes: DA1, Arabidopsis thaliana, AT1G19270; source: E. coli BL21 (DE3), purified (NI-NTA agarose beads)
In the case of B2, the binding result is listed as “binds”.
